# The supplement of paper PMC8728848
# The other results are listed elsewhere or left out.
# B1: PX15642A-pgi-501-20-501 (Parabacteroides gingivalis) (protein)
# chain: CELDRDPEGKDFQQPYTSFVQTKQNRDGLYALLRNTENPRMHFYQELQSDMYCTTITDGNSLAPFVNWDLGILNDHGRADEDEVSGIAGYYFVYNRLNQQANAFVNNTEAALQNQVYKNSTEIANAKSFLAEGKVLQALAIWRLMDRFSFHESVTEVNSGAKDLGVILLKEYNPGYIGPRATKAQCYDYILSRLSEAIEVLPENRESVLYVSRDYAYALRARIYLALGEYGKAAADAKMVVDKYPLIGAADASEFENIYRSDANNPEIIFRGFASATLGSFTATTLNGAAPAGKDIKYNPSAVPFQWVVDLYENEDFRKSVYIAKVVKKDKGYLVNKFLEDKAYRDVQDKPNLKVGARYFSVAEVYLILVESALQTGDTPTAEKYLKALSKARGAEVSVVNMEALQAERTRELIGEGSRLRDMVRWSIPNNHDAFETQPGLEGFANTTPLKAQAPVGFYAYTWEFPQRDRQTNPQLIKNWPI
# Key:
# Assay in all cases: glycan array binding signal (z-score within array); higher = stronger binding
# Conditions in all cases: glycan notation: IUPAC condensed, linker removed
# [1] = target: Neu5Ac(a2-3)Gal(b1-4)GlcNAc(b1-2)[Neu5Ac(a2-3)Gal(b1-4)GlcNAc(b1-4)]Man(a1-3)[GlcNAc(b1-4)][Neu5Ac(a2-3)Gal(b1-4)GlcNAc(b1-4)Man(a1-6)]Man(b1-4)GlcNAc(b1-4)GlcNAc
# How it was run: (§1)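 Glycan array data were curated from 3228 arrays in the Consortium for Functional Glycomics database and kept only where the protein sequence was available. Glycan names were converted to IUPAC-condensed notation, and columns mapping to the same glycan were averaged. The binding signal is a within-array Z-score, averaged across arrays of the same protein sequence at different concentrations or buffers and across linkers. Negative Z-scores can be read as non-binding.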
# [2] = target: Neu5Ac(a2-3)Gal(b1-4)GlcNAc(b1-2)[Neu5Ac(a2-3)Gal(b1-4)GlcNAc(b1-6)]Man(a1-6)[Neu5Ac(a2-3)Gal(b1-4)GlcNAc(b1-2)Man(a1-3)]Man(b1-4)GlcNAc(b1-4)GlcNAc
# How it was run: as §1
# [3] = target: Neu5Ac(a2-3)Gal(b1-4)GlcNAc(b1-2)[Neu5Ac(a2-3)Gal(b1-4)GlcNAc(b1-6)]Man(a1-6)[Neu5Ac(a2-3)Gal(b1-4)GlcNAc(b1-2)Man(a1-3)][GlcNAc(b1-4)]Man(b1-4)GlcNAc(b1-4)GlcNAc
# How it was run: as §1
# [4] = target: Neu5Ac(a2-3)Gal(b1-4)GlcNAc(b1-3)Gal
# How it was run: as §1
# [5] = target: Neu5Ac(a2-3)Gal(b1-4)GlcNAc(b1-3)Gal(b1-3)GlcNAc
# How it was run: as §1
# [6] = target: Neu5Ac(a2-3)Gal(b1-4)GlcNAc(b1-3)Gal(b1-4)GlcNAc
# How it was run: as §1
# [7] = target: Neu5Ac(a2-3)Gal(b1-4)GlcNAc(b1-3)Gal(b1-4)GlcNAc(b1-2)Man(a1-3)[Neu5Ac(a2-3)Gal(b1-4)GlcNAc(b1-3)Gal(b1-4)GlcNAc(b1-2)Man(a1-6)]Man(b1-4)GlcNAc(b1-4)GlcNAc
# How it was run: as §1
# [8] = target: Neu5Ac(a2-3)Gal(b1-4)GlcNAc(b1-3)Gal(b1-4)GlcNAc(b1-3)Gal(b1-4)GlcNAc
# How it was run: as §1
# [9] = target: Neu5Ac(a2-3)Gal(b1-4)GlcNAc(b1-3)Gal(b1-4)GlcNAc(b1-3)Gal(b1-4)GlcNAc(b1-2)Man(a1-3)[Neu5Ac(a2-3)Gal(b1-4)GlcNAc(b1-3)Gal(b1-4)GlcNAc(b1-3)Gal(b1-4)GlcNAc(b1-2)Man(a1-6)]GalNAc
# How it was run: as §1
# [10] = target: Neu5Ac(a2-3)Gal(b1-4)GlcNAc(b1-3)Gal(b1-4)GlcNAc(b1-3)GalNAc
# How it was run: as §1
# [11] = target: Neu5Ac(a2-3)Gal(b1-4)GlcNAc(b1-3)Gal(b1-4)GlcNAc(b1-3)[Neu5Ac(a2-3)Gal(b1-4)GlcNAc(b1-3)Gal(b1-4)GlcNAc(b1-6)]GalNAc
# How it was run: as §1
# [12] = target: Neu5Ac(a2-3)Gal(b1-4)GlcNAc(b1-3)Gal(b1-4)GlcNAc(b1-6)[Gal(b1-3)]GalNAc
# How it was run: as §1
# [13] = target: Neu5Ac(a2-3)Gal(b1-4)GlcNAc(b1-3)Gal(b1-4)[Fuc(a1-3)]GlcNAc
# How it was run: as §1
# [14] = target: Neu5Ac(a2-3)Gal(b1-4)GlcNAc(b1-3)GalNAc
# How it was run: as §1
# [15] = target: Neu5Ac(a2-3)Gal(b1-4)GlcNAc(b1-3)[Neu5Ac(a2-3)Gal(b1-4)GlcNAc(b1-6)]GalNAc
# How it was run: as §1
# [16] = target: Neu5Ac(a2-3)Gal(b1-4)GlcNAc(b1-6)GalNAc
# How it was run: as §1
# [17] = target: Neu5Ac(a2-3)Gal(b1-4)GlcNAc(b1-6)[Gal(b1-3)]GalNAc
# How it was run: as §1
# [18] = target: Neu5Ac(a2-3)Gal(b1-4)GlcNAc(b1-6)[Neu5Ac(a2-3)Gal(b1-3)]GalNAc
# How it was run: as §1
# [19] = target: Neu5Ac(a2-3)Gal(b1-4)GlcNAc6S
# How it was run: as §1
# [20] = target: Neu5Ac(a2-3)Gal(b1-4)[Fuc(a1-3)]GlcNAc
# How it was run: as §1
# [21] = target: Neu5Ac(a2-3)Gal(b1-4)[Fuc(a1-3)]GlcNAc(b1-2)Man
# How it was run: as §1
# [22] = target: Neu5Ac(a2-3)Gal(b1-4)[Fuc(a1-3)]GlcNAc(b1-3)Gal
# How it was run: as §1
# [23] = target: Neu5Ac(a2-3)Gal(b1-4)[Fuc(a1-3)]GlcNAc(b1-3)Gal(b1-4)GlcNAc
# How it was run: as §1
# [24] = target: Neu5Ac(a2-3)Gal(b1-4)[Fuc(a1-3)]GlcNAc(b1-3)Gal(b1-4)[Fuc(a1-3)]GlcNAc(b1-3)Gal(b1-4)[Fuc(a1-3)]GlcNAc
# How it was run: as §1
# [25] = target: Neu5Ac(a2-3)Gal(b1-4)[Fuc(a1-3)]GlcNAc(b1-3)GalNAc
# How it was run: as §1
# [26] = target: Neu5Ac(a2-3)Gal(b1-4)[Fuc(a1-3)]GlcNAc(b1-6)[Gal(b1-3)]GalNAc
# How it was run: as §1
# [27] = target: Neu5Ac(a2-3)Gal(b1-4)[Fuc(a1-3)]GlcNAc(b1-6)[Neu5Ac(a2-3)Gal(b1-3)]GalNAc
# How it was run: as §1
# [28] = target: Neu5Ac(a2-3)Gal(b1-4)[Fuc(a1-3)]GlcNAc6S
# How it was run: as §1
# [29] = target: Neu5Ac(a2-3)Gal6S(b1-4)GlcNAc
# How it was run: as §1
# [30] = target: Neu5Ac(a2-3)Gal6S(b1-4)[Fuc(a1-3)]GlcNAc
# How it was run: as §1
# Neu5Ac(a2-3)GalNAc = target: Neu5Ac(a2-3)GalNAc
# How it was run: as §1
# [31] = target: Neu5Ac(a2-3)GalNAc(b1-4)GlcNAc
# How it was run: as §1
# [32] = target: Neu5Ac(a2-3)[GalNAc(b1-4)]Gal(b1-4)Glc
# How it was run: as §1
# [33] = target: Neu5Ac(a2-3)[GalNAc(b1-4)]Gal(b1-4)GlcNAc
# How it was run: as §1
# [34] = target: Neu5Ac(a2-3)[GalNAc(b1-4)]Gal(b1-4)GlcNAc(b1-3)GalNAc
# How it was run: as §1
# [35] = target: Neu5Ac(a2-3)[Neu5Ac(a2-6)]GalNAc
# How it was run: as §1
# Neu5Ac(a2-6)Gal = target: Neu5Ac(a2-6)Gal
# How it was run: as §1
# [36] = target: Neu5Ac(a2-6)Gal(b1-3)GlcNAc(b1-3)[Gal(b1-4)GlcNAc(b1-6)]Gal(b1-4)Glc
# How it was run: as §1
# Neu5Ac(a2-6)Gal(b1-4)Glc = target: Neu5Ac(a2-6)Gal(b1-4)Glc
# How it was run: as §1
# [37] = target: Neu5Ac(a2-6)Gal(b1-4)GlcNAc
# How it was run: as §1
# [38] = target: Neu5Ac(a2-6)Gal(b1-4)GlcNAc(b1-2)Man
# How it was run: as §1
# [39] = target: Neu5Ac(a2-6)Gal(b1-4)GlcNAc(b1-2)Man(a1-3)Man(b1-4)GlcNAc(b1-4)GlcNAc
# How it was run: as §1
# [40] = target: Neu5Ac(a2-6)Gal(b1-4)GlcNAc(b1-2)Man(a1-3)[Gal(b1-4)GlcNAc(b1-2)Man(a1-6)]Man(b1-4)GlcNAc(b1-4)GlcNAc
# How it was run: as §1
# [41] = target: Neu5Ac(a2-6)Gal(b1-4)GlcNAc(b1-2)Man(a1-3)[GlcNAc(b1-2)Man(a1-6)]Man(b1-4)GlcNAc(b1-4)GlcNAc
# How it was run: as §1
# [42] = target: Neu5Ac(a2-6)Gal(b1-4)GlcNAc(b1-2)Man(a1-3)[GlcNAc(b1-4)][Neu5Ac(a2-6)Gal(b1-4)GlcNAc(b1-2)Man(a1-6)]Man(b1-4)GlcNAc(b1-4)GlcNAc
# How it was run: as §1
binder,measurement,setting,value
B1,glycan array binding signal (z-score),[1],-0.122
same,glycan array binding signal (z-score),[2],0.719
same,glycan array binding signal (z-score),[3],1.44
same,glycan array binding signal (z-score),[4],-0.256
same,glycan array binding signal (z-score),[5],-0.726
same,glycan array binding signal (z-score),[6],0.055
same,glycan array binding signal (z-score),[7],0.992
same,glycan array binding signal (z-score),[8],-0.218
same,glycan array binding signal (z-score),[9],0.742
same,glycan array binding signal (z-score),[10],-0.213
same,glycan array binding signal (z-score),[11],0.885
same,glycan array binding signal (z-score),[12],-0.549
same,glycan array binding signal (z-score),[13],-0.866
same,glycan array binding signal (z-score),[14],0.696
same,glycan array binding signal (z-score),[15],-0.28
same,glycan array binding signal (z-score),[16],-0.346
same,glycan array binding signal (z-score),[17],-1.07
same,glycan array binding signal (z-score),[18],-0.321
same,glycan array binding signal (z-score),[19],-0.486
same,glycan array binding signal (z-score),[20],-0.738
same,glycan array binding signal (z-score),[21],-0.096
same,glycan array binding signal (z-score),[22],0.506
same,glycan array binding signal (z-score),[23],0.535
same,glycan array binding signal (z-score),[24],0.189
same,glycan array binding signal (z-score),[25],3.38
same,glycan array binding signal (z-score),[26],-0.274
same,glycan array binding signal (z-score),[27],-0.034
same,glycan array binding signal (z-score),[28],-1.13
same,glycan array binding signal (z-score),[29],-0.175
same,glycan array binding signal (z-score),[30],-1.24
same,glycan array binding signal (z-score),Neu5Ac(a2-3)GalNAc,-0.441
same,glycan array binding signal (z-score),[31],-0.624
same,glycan array binding signal (z-score),[32],-0.51
same,glycan array binding signal (z-score),[33],-0.639
same,glycan array binding signal (z-score),[34],-1.14
same,glycan array binding signal (z-score),[35],0.508
same,glycan array binding signal (z-score),Neu5Ac(a2-6)Gal,-0.372
same,glycan array binding signal (z-score),[36],-0.73
same,glycan array binding signal (z-score),Neu5Ac(a2-6)Gal(b1-4)Glc,-0.022
same,glycan array binding signal (z-score),[37],-0.264
same,glycan array binding signal (z-score),[38],-0.844
same,glycan array binding signal (z-score),[39],1.01
same,glycan array binding signal (z-score),[40],-0.565
same,glycan array binding signal (z-score),[41],-0.482
same,glycan array binding signal (z-score),[42],-0.519

# Reprinted at random: two entries already listed.
binder,measurement,setting,value
B1,glycan array binding signal (z-score),[38],-0.844
same,glycan array binding signal (z-score),[11],0.885
